Structures can show the parent of a compound that is named as a salt.
What was measured:
[1] = Solubility in water; assay type: physicochemical; settings: Example 13 remark
[2] = system: chigger bites; test: Chigger bite treatment, one subject; assay type: in vivo, human; settings: Example 22; 4% lidocaine formulation applied after removal of the other two products
Description: The subject for this example had substantial experience with chigger bites, with typical symptoms including intense and prolonged (days to weeks) itching associated with the bites. Subject was provided with a solution of 4% lidocaine and water (carrier) according to the present disclosure. Subject received 6 chigger bites on inner thigh area. Subject applied the formulation to two of the chigger bites, treated two others with Chigger Rid®, a drug store product, and applied clear finger nail polish, a home remedy, to the final two bites. […] After three days, subject removed the other two products and applied the 4% lidocaine formulation of the present disclosure to the remaining four bites.

[3] = system: sea wasp (Chiropsalmus quadumanus) stings; test: Jellyfish sting test on inner forearm of human test subjects, sea wasp; assay type: in vivo
Description: Two genera of jellyfish were used in examples 2-19 described below: Chiropsalmus quadumanus, a cubomedusa and member of the Scyphozoa, also known as the sea wasp; and another scyphozoan jellyfish, hrysaora quinquecirrha, commonly called the sea nettle. These are the two most common types of stinging jellies that occur with frequency and/or regularity in normal swimming waters on the USA east coast north of Cape Canaveral.
Living healthy specimens were captured locally using trawls and dip-nets. They were maintained in flowing seawater aquariums (ca. 500 liters) for days-weeks; sea nettles maintained for long periods were fed live minnows (mummichugs).
For examples 3-19, with the exception of the commercially available spray products and the meat tenderizer paste solution, all of the other test solutions were in liquid form and were applied using a one milliliter pipetter and sterile tips.
For examples 3-19 below, the following general procedures were followed. Healthy, actively swimming jellyfish were used in all examples, and the same procedure was applied in all cases. The same human test subjects were used in all experiments, in order to have continuity and be able to qualitatively compare treatment effects among experimental dates. […]

| SMILES | dissolves in water [1] | itching of remaining 4 bites treated after three days [2] | pain/irritation subsiding ([3]; Example 6, 10% compared to 5% lidocaine in 80:20 water:propylene glycol) | redness and irritation of treated sites the next day ([3]; Example 7, 20 h later, lidocaine-treated sites vs absence of lidocaine) |
| --- | --- | --- | --- | --- |
| CCN(CC)CC(=O)Nc1c(C)cccc1C [lidocaine hydrochloride] | does |  |  |  |
| CCN(CC)CC(=O)Nc1c(C)cccc1C [lidocaine] |  | subsided after application of the formulation of the present disclosure and did not return | subsided faster | not red or irritated the next day |
